The text below walks through data of the supplement of paper PMC12595434, “Development of retinoid nuclear receptor pathway antagonists through targeting aldehyde dehydrogenase 1A3” (iScience, 2025).

By UniProt entry, the sequences of proteins in these tests, tags left out. Where a name states a change or a piece, a line headed by the entry shows the natural chain unless it says otherwise.
UniProt O00159, whole entry: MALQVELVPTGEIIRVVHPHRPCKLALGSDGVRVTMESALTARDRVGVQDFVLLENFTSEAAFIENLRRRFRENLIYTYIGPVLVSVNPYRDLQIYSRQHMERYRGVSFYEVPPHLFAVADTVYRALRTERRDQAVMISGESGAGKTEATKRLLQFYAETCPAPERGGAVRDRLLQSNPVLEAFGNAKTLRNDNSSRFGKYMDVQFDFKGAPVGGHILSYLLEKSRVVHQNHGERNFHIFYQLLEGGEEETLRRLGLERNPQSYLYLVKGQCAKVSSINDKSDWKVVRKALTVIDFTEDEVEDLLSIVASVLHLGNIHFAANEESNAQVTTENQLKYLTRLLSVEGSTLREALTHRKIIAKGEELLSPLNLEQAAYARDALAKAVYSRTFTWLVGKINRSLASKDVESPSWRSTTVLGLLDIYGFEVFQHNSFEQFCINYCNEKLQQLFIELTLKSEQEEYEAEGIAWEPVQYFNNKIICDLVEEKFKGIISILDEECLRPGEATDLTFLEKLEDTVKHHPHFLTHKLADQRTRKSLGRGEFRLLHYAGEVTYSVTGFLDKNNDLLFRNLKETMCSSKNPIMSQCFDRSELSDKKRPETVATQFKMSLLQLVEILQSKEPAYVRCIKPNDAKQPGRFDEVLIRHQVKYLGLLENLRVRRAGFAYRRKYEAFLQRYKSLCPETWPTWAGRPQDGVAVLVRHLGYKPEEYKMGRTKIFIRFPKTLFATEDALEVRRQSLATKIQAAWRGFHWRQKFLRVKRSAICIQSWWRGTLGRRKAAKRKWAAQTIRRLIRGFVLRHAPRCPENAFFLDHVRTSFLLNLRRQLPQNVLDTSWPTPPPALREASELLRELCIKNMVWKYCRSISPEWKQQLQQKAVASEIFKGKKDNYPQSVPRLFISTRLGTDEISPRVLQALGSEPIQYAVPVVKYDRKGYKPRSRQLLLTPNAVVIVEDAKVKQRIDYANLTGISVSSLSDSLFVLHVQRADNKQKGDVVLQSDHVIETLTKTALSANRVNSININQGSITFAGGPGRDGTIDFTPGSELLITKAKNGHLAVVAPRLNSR
UniProt O00567: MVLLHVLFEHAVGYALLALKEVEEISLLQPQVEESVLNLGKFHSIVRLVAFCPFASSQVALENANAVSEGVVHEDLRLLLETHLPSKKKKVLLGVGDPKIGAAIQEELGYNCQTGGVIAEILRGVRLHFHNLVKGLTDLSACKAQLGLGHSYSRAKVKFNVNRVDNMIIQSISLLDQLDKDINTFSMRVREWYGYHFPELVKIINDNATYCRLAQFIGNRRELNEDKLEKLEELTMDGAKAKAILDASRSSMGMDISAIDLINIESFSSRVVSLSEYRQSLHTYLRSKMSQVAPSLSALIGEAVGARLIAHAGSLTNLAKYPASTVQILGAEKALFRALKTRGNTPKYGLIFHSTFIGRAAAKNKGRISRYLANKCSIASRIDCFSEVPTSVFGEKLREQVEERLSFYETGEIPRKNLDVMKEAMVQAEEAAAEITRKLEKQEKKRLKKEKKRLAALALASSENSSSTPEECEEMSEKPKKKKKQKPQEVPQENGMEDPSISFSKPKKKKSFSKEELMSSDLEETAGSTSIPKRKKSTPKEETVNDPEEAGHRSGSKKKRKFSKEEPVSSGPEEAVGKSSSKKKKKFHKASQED
UniProt O00584, whole entry: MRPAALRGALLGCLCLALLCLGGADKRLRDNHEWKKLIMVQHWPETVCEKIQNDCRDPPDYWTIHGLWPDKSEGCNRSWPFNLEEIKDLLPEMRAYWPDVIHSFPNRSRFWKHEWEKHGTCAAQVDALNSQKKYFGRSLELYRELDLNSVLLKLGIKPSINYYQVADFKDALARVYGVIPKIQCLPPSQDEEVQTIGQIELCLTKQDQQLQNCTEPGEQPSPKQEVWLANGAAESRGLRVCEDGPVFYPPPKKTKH
UniProt O43318: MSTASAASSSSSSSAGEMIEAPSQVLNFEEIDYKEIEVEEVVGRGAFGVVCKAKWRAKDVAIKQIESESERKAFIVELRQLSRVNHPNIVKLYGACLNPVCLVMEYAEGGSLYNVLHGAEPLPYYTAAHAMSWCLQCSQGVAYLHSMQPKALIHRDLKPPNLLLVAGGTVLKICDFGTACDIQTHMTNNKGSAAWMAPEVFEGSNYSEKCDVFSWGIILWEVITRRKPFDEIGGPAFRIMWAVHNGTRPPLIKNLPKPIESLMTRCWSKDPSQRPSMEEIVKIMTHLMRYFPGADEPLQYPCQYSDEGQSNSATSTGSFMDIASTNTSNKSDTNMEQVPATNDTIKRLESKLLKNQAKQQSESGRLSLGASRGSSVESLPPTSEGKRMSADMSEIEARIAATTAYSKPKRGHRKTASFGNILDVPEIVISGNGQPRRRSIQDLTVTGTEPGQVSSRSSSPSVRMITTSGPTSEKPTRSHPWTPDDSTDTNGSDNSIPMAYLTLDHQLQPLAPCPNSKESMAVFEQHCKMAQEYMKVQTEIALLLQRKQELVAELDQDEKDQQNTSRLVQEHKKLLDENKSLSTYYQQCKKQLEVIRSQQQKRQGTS
UniProt O15182: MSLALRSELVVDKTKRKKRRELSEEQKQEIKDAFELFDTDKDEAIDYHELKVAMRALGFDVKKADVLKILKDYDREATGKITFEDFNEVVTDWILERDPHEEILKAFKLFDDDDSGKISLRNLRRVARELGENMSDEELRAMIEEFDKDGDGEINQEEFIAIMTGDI
UniProt O15504: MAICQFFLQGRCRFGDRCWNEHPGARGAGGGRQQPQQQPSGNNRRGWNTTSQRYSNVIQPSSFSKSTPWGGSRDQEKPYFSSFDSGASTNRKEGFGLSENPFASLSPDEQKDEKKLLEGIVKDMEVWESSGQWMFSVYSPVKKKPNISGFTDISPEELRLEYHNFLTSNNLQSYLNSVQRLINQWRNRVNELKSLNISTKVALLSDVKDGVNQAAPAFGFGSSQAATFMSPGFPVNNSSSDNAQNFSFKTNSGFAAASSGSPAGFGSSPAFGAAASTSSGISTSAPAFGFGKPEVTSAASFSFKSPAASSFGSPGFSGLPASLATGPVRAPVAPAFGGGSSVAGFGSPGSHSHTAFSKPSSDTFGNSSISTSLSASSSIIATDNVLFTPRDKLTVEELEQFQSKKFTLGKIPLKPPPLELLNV
UniProt O00264: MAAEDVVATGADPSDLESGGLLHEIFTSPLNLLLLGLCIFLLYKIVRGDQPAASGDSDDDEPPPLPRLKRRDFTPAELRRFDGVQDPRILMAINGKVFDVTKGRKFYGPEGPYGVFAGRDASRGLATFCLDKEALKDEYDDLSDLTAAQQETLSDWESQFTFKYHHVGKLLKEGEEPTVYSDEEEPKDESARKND
UniProt O14530: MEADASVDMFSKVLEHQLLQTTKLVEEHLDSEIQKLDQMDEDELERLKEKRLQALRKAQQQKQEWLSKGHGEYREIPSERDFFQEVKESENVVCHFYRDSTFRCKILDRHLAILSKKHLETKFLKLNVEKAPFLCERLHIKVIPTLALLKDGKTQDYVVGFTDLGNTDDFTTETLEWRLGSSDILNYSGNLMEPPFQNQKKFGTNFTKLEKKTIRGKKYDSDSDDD
UniProt A8MWD9, whole entry: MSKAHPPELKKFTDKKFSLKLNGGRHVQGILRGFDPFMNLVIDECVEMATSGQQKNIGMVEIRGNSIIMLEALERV
UniProt O00273: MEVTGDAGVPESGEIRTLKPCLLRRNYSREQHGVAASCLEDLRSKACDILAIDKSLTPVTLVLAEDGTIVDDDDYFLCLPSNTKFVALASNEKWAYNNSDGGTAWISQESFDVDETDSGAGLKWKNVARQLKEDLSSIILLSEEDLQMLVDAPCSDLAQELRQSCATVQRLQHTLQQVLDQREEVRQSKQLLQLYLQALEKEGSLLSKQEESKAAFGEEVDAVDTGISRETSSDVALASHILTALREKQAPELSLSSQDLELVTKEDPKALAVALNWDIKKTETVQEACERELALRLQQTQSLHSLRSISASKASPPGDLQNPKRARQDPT
UniProt O00255, whole entry: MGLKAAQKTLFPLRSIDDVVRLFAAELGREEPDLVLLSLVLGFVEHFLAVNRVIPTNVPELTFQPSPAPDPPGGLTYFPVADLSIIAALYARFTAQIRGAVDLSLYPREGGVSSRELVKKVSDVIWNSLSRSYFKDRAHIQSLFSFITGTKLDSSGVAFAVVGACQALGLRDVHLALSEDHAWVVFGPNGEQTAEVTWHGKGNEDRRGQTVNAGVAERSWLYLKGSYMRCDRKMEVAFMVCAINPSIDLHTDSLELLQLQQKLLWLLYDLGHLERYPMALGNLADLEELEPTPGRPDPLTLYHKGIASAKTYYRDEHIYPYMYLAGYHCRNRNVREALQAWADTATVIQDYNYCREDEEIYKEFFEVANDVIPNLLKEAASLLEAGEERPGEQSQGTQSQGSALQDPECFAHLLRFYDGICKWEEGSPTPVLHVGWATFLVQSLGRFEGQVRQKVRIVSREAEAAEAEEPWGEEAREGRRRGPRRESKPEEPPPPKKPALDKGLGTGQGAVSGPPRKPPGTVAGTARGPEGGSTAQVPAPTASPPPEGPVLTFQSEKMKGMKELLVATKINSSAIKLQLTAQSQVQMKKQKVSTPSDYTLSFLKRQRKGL
UniProt O14578, whole entry: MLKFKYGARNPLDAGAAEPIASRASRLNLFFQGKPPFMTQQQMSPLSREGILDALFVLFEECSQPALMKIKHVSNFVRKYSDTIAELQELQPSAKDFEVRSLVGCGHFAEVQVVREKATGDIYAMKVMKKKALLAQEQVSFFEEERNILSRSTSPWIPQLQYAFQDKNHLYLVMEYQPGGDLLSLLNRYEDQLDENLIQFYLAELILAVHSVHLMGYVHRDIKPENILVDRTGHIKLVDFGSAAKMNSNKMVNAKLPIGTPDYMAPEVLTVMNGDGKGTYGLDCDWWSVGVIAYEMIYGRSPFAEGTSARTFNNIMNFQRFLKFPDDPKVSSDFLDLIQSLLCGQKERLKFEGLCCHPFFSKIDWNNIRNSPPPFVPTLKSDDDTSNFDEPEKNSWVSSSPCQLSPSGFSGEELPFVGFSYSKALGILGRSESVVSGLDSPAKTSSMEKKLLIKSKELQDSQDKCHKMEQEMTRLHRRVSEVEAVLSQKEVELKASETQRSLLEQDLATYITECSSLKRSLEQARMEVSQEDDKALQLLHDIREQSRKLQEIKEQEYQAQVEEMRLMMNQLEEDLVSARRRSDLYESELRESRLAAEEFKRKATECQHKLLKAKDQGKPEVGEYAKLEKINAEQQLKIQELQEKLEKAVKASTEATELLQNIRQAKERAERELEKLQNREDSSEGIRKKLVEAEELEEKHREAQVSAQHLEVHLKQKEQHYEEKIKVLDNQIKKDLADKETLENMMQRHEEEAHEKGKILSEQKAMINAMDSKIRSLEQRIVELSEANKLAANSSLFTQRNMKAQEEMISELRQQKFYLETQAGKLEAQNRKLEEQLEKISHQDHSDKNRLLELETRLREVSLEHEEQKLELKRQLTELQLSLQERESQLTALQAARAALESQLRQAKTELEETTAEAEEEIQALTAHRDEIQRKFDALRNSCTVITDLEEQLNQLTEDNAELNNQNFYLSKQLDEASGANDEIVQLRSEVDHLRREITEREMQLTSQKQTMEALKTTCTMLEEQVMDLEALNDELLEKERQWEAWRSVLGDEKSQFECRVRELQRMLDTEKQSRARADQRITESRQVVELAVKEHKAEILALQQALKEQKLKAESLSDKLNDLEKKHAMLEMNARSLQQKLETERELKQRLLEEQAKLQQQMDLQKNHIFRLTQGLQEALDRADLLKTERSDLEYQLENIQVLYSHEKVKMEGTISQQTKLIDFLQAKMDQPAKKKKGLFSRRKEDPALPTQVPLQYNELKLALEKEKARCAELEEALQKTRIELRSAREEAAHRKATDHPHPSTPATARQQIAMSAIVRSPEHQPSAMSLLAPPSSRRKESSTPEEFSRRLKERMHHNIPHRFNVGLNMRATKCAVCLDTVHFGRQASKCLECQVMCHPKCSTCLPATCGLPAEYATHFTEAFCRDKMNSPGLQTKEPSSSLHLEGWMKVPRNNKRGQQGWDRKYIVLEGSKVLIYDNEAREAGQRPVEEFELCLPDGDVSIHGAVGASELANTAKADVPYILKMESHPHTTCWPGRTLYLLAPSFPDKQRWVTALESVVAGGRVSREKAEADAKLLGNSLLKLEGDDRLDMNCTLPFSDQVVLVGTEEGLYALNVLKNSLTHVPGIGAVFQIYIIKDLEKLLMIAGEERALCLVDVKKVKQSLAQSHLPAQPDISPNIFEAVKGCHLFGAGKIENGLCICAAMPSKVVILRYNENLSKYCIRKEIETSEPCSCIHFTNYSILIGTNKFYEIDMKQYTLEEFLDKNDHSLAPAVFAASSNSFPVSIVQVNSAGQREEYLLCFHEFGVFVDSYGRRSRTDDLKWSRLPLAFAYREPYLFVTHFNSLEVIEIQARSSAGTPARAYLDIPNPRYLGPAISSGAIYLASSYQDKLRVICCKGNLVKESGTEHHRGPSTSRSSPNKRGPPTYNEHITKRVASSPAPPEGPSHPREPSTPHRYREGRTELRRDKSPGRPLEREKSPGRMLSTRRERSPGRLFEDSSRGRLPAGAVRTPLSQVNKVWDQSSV

This is one part of the list. Single values of this set are uncertain.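 Many melting curves are irregular; where none melted, Tm was taken as 64 °C.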

Compound in the first test: CCc1cnccc1C(=O)Nc1cc2c(cc1F)NC(=O)CC2
Put plainly: melting temperature shift (DMSO Tm minus MBE1-treated Tm) in cellular thermal proteome profiling; higher = less thermal stabilization by MBE1 (negative = stabilized by MBE1). The conditions noted are these: A375; MBE1 concentration: 100 nM.
Take MYO1C (UniProt O00159): the melting temperature shift is -0.64 °C.

Regarding SART1 (UniProt O43290), the melting temperature shift was -0.757 °C.

As for NOP56 (UniProt O00567), the melting temperature shift was -0.771 °C.

Take DHX15 (UniProt O43143): the melting temperature shift is -0.501 °C.

Consider SAC3D1 (UniProt A6NKF1), for which the melting temperature shift was determined as 0.405 °C.

Consider UBXN8 (UniProt O00124), for which the melting temperature shift turned out to be 0.631 °C.

Regarding UniProt O00584, the melting temperature shift was 1.24 °C.

Turning to UniProt O43347, the melting temperature shift is -2.62 °C.

Take MAP3K7 (UniProt O43318): the melting temperature shift stood at 0.122 °C.

Turning to EML1 (UniProt O00423), the melting temperature shift was 0.91 °C.

With HDAC3 (UniProt O15379), the melting temperature shift was -1.07 °C.

Regarding UniProt O15068, the melting temperature shift stood at 3.21 °C.

For UniProt C4AMC7, the melting temperature shift is -0.162 °C.

AP3B1 (UniProt O00203): the melting temperature shift is 0.122 °C.

Turning to PAPSS1 (UniProt O43252), the melting temperature shift is -0.295 °C.

As for UniProt O14653, the melting temperature shift is -1.5 °C.

CETN3 (UniProt O15182): the melting temperature shift was -3.95 °C.

On to UniProt O15327, for which the melting temperature shift is 0.146 °C.

Consider UniProt O15504, for which the melting temperature shift was -0.202 °C.

As for PGRMC1 (UniProt O00264), the melting temperature shift is -0.61 °C.

As to BCAT2 (UniProt O15382), the melting temperature shift is -2.17 °C.

For UniProt O00268, the melting temperature shift is -1.15 °C.

Turning to UniProt O15550, the melting temperature shift was 0.156 °C.

Regarding SCAMP3 (UniProt O14828), the melting temperature shift was -2.8 °C.

On to TXNDC9 (UniProt O14530), for which the melting temperature shift is -0.208 °C.

Consider UniProt A8MWD9, for which the melting temperature shift came out at 0.507 °C.

As to PLOD2 (UniProt O00469), the melting temperature shift was -0.731 °C.

Take DFFA (UniProt O00273): the melting temperature shift was -1.65 °C.

As for UniProt O00255, the melting temperature shift was -0.256 °C.

With PGP (UniProt A6NDG6), the melting temperature shift was -1.38 °C.

In the case of OGT (UniProt O15294), the melting temperature shift was found to be 0 °C.

Turning to CIT (UniProt O14578), the melting temperature shift was 0.366 °C.

For the target UniProt O15484, the melting temperature shift was -1.55 °C.

On to UniProt O14678, for which the melting temperature shift is -0.577 °C.

With EIF3D (UniProt O15371), the melting temperature shift is -0.311 °C.

On to PPIP5K2 (UniProt O43314), for which the melting temperature shift is -0.845 °C.

Turning to P0CG08 (UniProt B7ZAQ6), the melting temperature shift was -0.523 °C.

The same test, now with this note: A375; MBE1 concentration: 1 uM.
As for MYO1C (UniProt O00159), the melting temperature shift is -0.571 °C.

As for SART1 (UniProt O43290), the melting temperature shift is -0.0855 °C.

For the target NOP56 (UniProt O00567), the melting temperature shift was -0.369 °C.

As for DHX15 (UniProt O43143), the melting temperature shift is -0.11 °C.

In the case of SAC3D1 (UniProt A6NKF1), the melting temperature shift was determined as 0.55 °C.

As to UBXN8 (UniProt O00124), the melting temperature shift was 0.442 °C.

As for UniProt O00584, the melting temperature shift stood at 0.587 °C.

Consider UniProt O43347, for which the melting temperature shift was -0.336 °C.

In the case of MAP3K7 (UniProt O43318), the melting temperature shift is -0.141 °C.

For EML1 (UniProt O00423), the melting temperature shift worked out at 0.107 °C.

For HDAC3 (UniProt O15379), the melting temperature shift is -0.231 °C.

Consider UniProt O15068, for which the melting temperature shift is 2.76 °C.

In the case of UniProt C4AMC7, the melting temperature shift is -0.543 °C.

Regarding AP3B1 (UniProt O00203), the melting temperature shift is -0.0488 °C.

Take PAPSS1 (UniProt O43252): the melting temperature shift amounted to 0.449 °C.

For the target UniProt O14653, the melting temperature shift was 0.287 °C.

As for CETN3 (UniProt O15182), the melting temperature shift is -4.24 °C.

For UniProt O15327, the melting temperature shift was -0.136 °C.

For the target UniProt O15504, the melting temperature shift was determined as 0.519 °C.

Consider PGRMC1 (UniProt O00264), for which the melting temperature shift was -0.704 °C.

Turning to BCAT2 (UniProt O15382), the melting temperature shift was 0.065 °C.

UniProt O00268: the melting temperature shift was -0.471 °C.

Turning to UniProt O15550, the melting temperature shift is -0.977 °C.

Turning to SCAMP3 (UniProt O14828), the melting temperature shift is -0.374 °C.

For TXNDC9 (UniProt O14530), the melting temperature shift came out at 0.0402 °C.

Take UniProt A8MWD9: the melting temperature shift is -2.22 °C.

For PLOD2 (UniProt O00469), the melting temperature shift was 0.165 °C.

As to DFFA (UniProt O00273), the melting temperature shift is -0.209 °C.

Consider UniProt O00255, for which the melting temperature shift came out at 0.0384 °C.

As to PGP (UniProt A6NDG6), the melting temperature shift was -1.6 °C.

As for OGT (UniProt O15294), the melting temperature shift was -0.415 °C.

Regarding CIT (UniProt O14578), the melting temperature shift is -0.055 °C.

With UniProt O15484, the melting temperature shift stood at 0.232 °C.

Regarding UniProt O14678, the melting temperature shift was found to be 1.04 °C.

For EIF3D (UniProt O15371), the melting temperature shift was -0.0235 °C.

Take PPIP5K2 (UniProt O43314): the melting temperature shift was 0.0604 °C.

Turning to P0CG08 (UniProt B7ZAQ6), the melting temperature shift was -0.159 °C.
